The values below come from publication PMC7862363.

Protein sequences, listed by entry. Tags and fused reporters are not part of them. Lines headed by an entry give the natural chain unless they say otherwise; changes in a name come on top.
UniProt P12643: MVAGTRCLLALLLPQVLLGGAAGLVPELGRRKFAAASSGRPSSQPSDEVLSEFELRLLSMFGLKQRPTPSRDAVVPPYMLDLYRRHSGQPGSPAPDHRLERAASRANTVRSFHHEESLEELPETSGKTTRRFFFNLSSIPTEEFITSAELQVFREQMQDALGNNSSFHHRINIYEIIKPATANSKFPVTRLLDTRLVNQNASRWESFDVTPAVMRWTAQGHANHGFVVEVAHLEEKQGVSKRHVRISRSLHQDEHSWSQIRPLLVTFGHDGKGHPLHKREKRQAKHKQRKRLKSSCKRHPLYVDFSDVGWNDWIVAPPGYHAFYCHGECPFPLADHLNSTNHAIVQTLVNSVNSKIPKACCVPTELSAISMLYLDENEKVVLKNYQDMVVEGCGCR

No constants are given. Whether binding was seen depends on the method and setting. In cells and extracts the contact can be indirect. A result given as binding can be weak or reduced; the word gives no strength. Sequences can lack the tags named with a protein.

This assay deals with HA-BMP2 (bone morphogenetic protein 2) (UniProt P12643). As to the kind of experiment: co-IP; 293T cells co-transfected with two tagged constructs; MG132 12 h before harvest; EBC lysis buffer; 500 μg protein with anti-FLAG M2-agarose or anti-HA agarose beads, 3 h, 4 °C; washed four times with NETN buffer; immunoblot.

B1: Flag-OMD (full-length osteomodulin) (protein, UniProt Q99983 21-421)
chain: QYETYQWDEDYDQEPDDDYQTGFPFRQNVDYGVPFHQYTLGCVSECFCPTNFPSSMYCDNRKLKTIPNIPMHIQQLYLQFNEIEAVTANSFINATHLKEINLSHNKIKSQKIDYGVFAKLPNLLQLHLEHNNLEEFPFPLPKSLERLLLGYNEISKLQTNAMDGLVNLTMLDLCYNYLHDSLLKDKIFAKMEKLMQLNLCSNRLESMPPGLPSSLMYLSLENNSISSIPEKYFDKLPKLHTLRMSHNKLQDIPYNIFNLPNIVELSVGHNKLKQAFYIPRNLEHLYLQNNEIEKMNLTVMCPSIDPLHYHHLTYIRVDQNKLKEPISSYIFFCFPHIHTIYYGEQRSTNGQTIQLKTQVFRRFPDDDDESEDHDDPDNAHESPEQEGAEGHFDLHYYENQE
Regarding B1, the binding result is on record as “binds”.
